Measured values: patent publication US20020006421A1, “Long-acting, chemical-resistant skin emollients, moisturizers, and strengtheners” (priority 1997, published 2002)

Experiments:
[1] = Reaction with N-acetylcysteamine (model for skin-bound sulfhydryl groups) in the presence of base, followed by 1H NMR; settings: for covalent adduct formation with N-acetylcysteamine: in the presence of a base (DBN or triethylamine), chloroform
Description: As a model for skin-bound sulfhydryl groups (—SH) of cysteine residues in skin proteins, the compound N-acetylcysteamine was allowed to react with OSM in the presence of a catalytic amount of the base 1,5-diazabicyclo[4.3.0]non-5-ene (DBN) in chloroform solution.
As a model for skin-bound sulfhydryl groups (—SH) of cysteine residues in skin proteins, the compound N-acetylcysteamine was allowed to react with OCM in the presence of a catalytic amount of the base 1,5-diazabicyclo[4.3.0]non-5-ene (DBN) in chloroform solution.
As a model for skin bound sulfhydryl groups (—SH) of cysteine residues in skin proteins, the compound N-acetylcysteamine was allowed to react with DCPEG in the presence of a catalytic amount of the base 1,5-diazabicyclo[4.3.0]non-5-ene (DBN) in chloroform solution.
A solution of octadecyl S-sorbyl-3 -mercaptopropionate (10.9 mg, 0.024 mmol) in 0.3 mL of CDCl3 was added to a solution of N-acetylcysteamine (5.2 μL, 0.048 mmol) and DBN (3.1 μL, 0.025 mmol) in 0.3 mL of CDCl3. The mixture was immediately transferred to an NMR tube and the first spectrum was recorded at time=0. The reaction solution was allowed to stand at room temperature in the NMR tube for two days, and the course of the reaction was monitored by periodically recording the ^1H NMR spectrum. A total often ^1H NMR experiments were performed at time=0, 0.25, 0.5, 1, 1.5, 4.5, 12, 20.5, 26, and 39 hours.
The time course of the reaction of OSM with 2 equiv of N-acetylcysteamine in the presence of 1 equiv of DBN in 0.6 mL of CDCl3 was studied by recording ^1H NMR spectra at various times for 39 hours. The signals of the olefinic protons due to the sorbate group of OSM (δ 6.2-6.0 and δ 7.2) and that of the newly formed C═C bond of the monoadducts (δ 5.6-5.2) were monitored in particular. In the course of these experiments, it was observed that the signals at δ 6.2-6.0 and δ 7.2 disappeared, while those at δ 5.6-5.2 appeared over the first 1.5 hours of the reaction, which indicated the formation of the monoadducts. The olefinic protons signals of the monoadducts started to fade away gradually after 1.5 hours and became very weak by approximately 39 hours. These spectra may imply the formation of the diadduct.
The reaction of OCM with N-acetylcysteamine was carried out at room temperature as follows: 22.0 mg of OCM was dissolved in 0.6 mL of CDCl3 and 5.7 μL of N-acetylcysteamine (1 equivalent) was added. […] Then a catalytic amount (0.1 equiv) of the base DBN was added, and the NMR spectrum was recorded immediately and again after 5 minutes. […]
The reaction of DCPEG with N-acetylcysteamine was followed by NMR: 35.6 mg of DCPEG was dissolved in 0.7 mL CDCl3 and the spectrum was recorded before and after addition of N-acetylcysteamine (1 equivalent per crotonyl moiety). […]

[2] = Reaction with cysteine ethyl ester (model for skin-bound cysteine residues); settings: under similar conditions (catalytic DBN, chloroform)

SMILES	reaction with N-acetylcysteamine before addition of base ([1]; 1 equivalent N-acetylcysteamine, CDCl3, room temperature, no DBN)	covalent adduct formation with N-acetylcysteamine [1]	covalent attachment to cysteine ethyl ester [2]
C/C=C/C(=O)SCCC(=O)OCCCCCCCCCCCCCCCCCC [OCM, octadecyl S-crotonyl-3-mercaptopropionate]	no reaction had occurred	covalent bond formation occurred	reaction also occurred
C/C=C/C=C/C(=O)OCCCCCCCCCCCCCCCCCC [OS, n-Octadecyl sorbate, reference compound]		react with N-acetylcysteamine	
C/C=C/C=C/C(=O)SCCC(=O)OCCCCCCCCCCCCCCCCCC [OSM, octadecyl S-sorbyl-3-mercaptopropionate]		react with N-acetylcysteamine; also recorded: covalent bond formation occurred	Covalent attachment also occurs

Entries after “also recorded” stand apart in the source; their conditions may differ.
